The target of the experiment is T1, … (IND) transcription factor of Arabidopsis thaliana (Arabidopsis thaliana) (UniProt O81313).
T1 sequence: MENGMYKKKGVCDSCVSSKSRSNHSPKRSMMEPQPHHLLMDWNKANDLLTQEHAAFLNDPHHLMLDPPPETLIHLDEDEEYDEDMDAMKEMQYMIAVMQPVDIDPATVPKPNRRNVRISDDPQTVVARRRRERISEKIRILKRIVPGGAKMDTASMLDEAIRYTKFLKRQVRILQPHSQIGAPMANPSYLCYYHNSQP
Kind of experiment: two-hybrid; GAL4 system (pGADT7 and pGBKT7), yeast AH109, co-transformation, 28 °C, growth on selective YSD medium -W-L-H-A, no IAA.

Results are given in words; binding and its absence hold for the method and conditions named. Some entries that bind do so weakly or less than the wild type.

B1: ETT-specific domain (ES domain) of ETTIN (domain or fragment, UniProt O23661 392-608)
chain: SISNSGSFVTTGPKRSRIGFSSGKPDIPVSEGIRATDFEESLRFQRVLQGQEIFPGFINTCSDGGAGARRGRFKGTEFGDSYGFHKVLQGQETVPAYSITDHRQQHGLSQRNIWCGPFQNFSTRILPPSVSSSPSSVLLTNSNSPNGRLEDHHGGSGRCRLFGFPLTDETTAVASATAVPCVEGNSMKGASAVQSNHHHSQGRDIYAMRDMLLDIAL
Consider B1, for which the binding entry is given as “binds”.

B2: ETT_388-594 (domain or fragment, UniProt O23661 388-594)
chain: EPSGSISNSGSFVTTGPKRSRIGFSSGKPDIPVSEGIRATDFEESLRFQRVLQGQEIFPGFINTCSDGGAGARRGRFKGTEFGDSYGFHKVLQGQETVPAYSITDHRQQHGLSQRNIWCGPFQNFSTRILPPSVSSSPSSVLLTNSNSPNGRLEDHHGGSGRCRLFGFPLTDETTAVASATAVPCVEGNSMKGASAVQSNHHHSQGR
As to B2, the binding result is “binds”.

For the origin of these results see publication PMC6131142.
